Some entries repeat one wording, which the source may state once for all of them.
Test system: streptozotocin-induced diabetic retinopathy in Long Evans rats
Experiment: Diabetic retinopathy rat model (streptozotocin, high fat diet), eye drops
Format: in vivo
Settings: STZ, once daily eye drops from week 14 (idebenone 10 mg/ml, UTA37 4.6 mg/ml, UTA77 7.36 mg/ml), compared to control rats

## CC1=C(CCCC(=O)N[C@@H](Cc2ccccc2)C(=O)O)C(=O)c2ccccc2C1=O [UTA #37, (S)-2-(4-(3-methyl-1,4-naphthoquinone-2-yl)butanamido)-3-phenylpropanoic Acid]
  Systemic blood glucose levels (in words): did not significantly alter systemic blood glucose levels

## COc1ccc(CCNC(=O)CCCC2=C(C)C(=O)c3ccccc3C2=O)cc1OC [UTA #77, N-(3,4-dimethoxyphenethyl)-4-(3-methyl-1,4-naphthoquinone-2-yl)butanamide]
  Systemic blood glucose levels (in words): did not significantly alter systemic blood glucose levels

## COC1=C(OC)C(=O)C(CCCCCCCCCCO)=C(C)C1=O [Idebenone, idebenone, reference compound]
  Systemic blood glucose levels (in words): did not significantly alter systemic blood glucose levels

From patent publication US10934253B2, “Therapeutic compounds and methods” (UNIVERSITY OF TASMANIA, priority 2017, dated 2021)
